System: intracellular amastigotes of L. amaz/tc3
Assay: Fluorescence assay in the macrophage-amastigote model (Raw 264.7 infected with L. amaz/tc3)
Type: cell-based, Leishmania (Leishmania) amazonensis
Details: infected Raw 264.7 macrophages
Method: Furthermore, the efficacy of MI was also determined against intracellular amastigotes of L. amaz/tc3 and L. amaz/wt. Raw 264.7 macrophages were plated in 96-well black plate (5 x 10^4 cells/well) and in eight well Lab-Tek tissue culture slides (6.6 x 10^4 cells/ml) (Nunc, USA). The cells were infected with promastigotes in stationary phase of L. amaz/tc3 and L. amaz/wt (1:20 ratio) at 33°C, 5% CO2. After incubation, the infected macrophages were washed to remove non-internalized parasites with PBS plus P-S. New RPMI-1640 medium with different concentrations of MI (20 to 0.62 µg/ml) was added to each well and incubated at 33°C, 5% CO2 during 48 h. The anti-leishmanial activity of MI was determined by measuring the fluorescence of intracellular amastigotes of L. amaz/tc3 in a plate reader (Tecan, Männedorf, Switzerland). The viability was calculated as mentioned above, and the IC50 was also estimated. Simultaneously, the leishmanicidal activity of MI against L. amaz/wt was determined by the microscopy test. In this case, the infected macrophages were stained with Diff Quik (Biopur S.R.L., Rosario, Argentina) and the number of intracellular amastigotes was determined in 200-500 macrophages in treated and control cultures per slide under the immersion lens microscope (100x) (Leitz Wetzlar, Germany). The infection index (II) and the % infectivity (I) were calculated by the following formulas: II = IM × A, where IM= infected macrophages (%), A= number of amastigotes per infected macrophages; and I(%)=IIT/IIc×100, where IIT= infection index in treated cultures, IIC= infection index in control cultures ([Ayres et al., 2008]). The IC50 of MI was calculated.
The flavonoids anti-leishmanial activity was also evaluated against intracellular amastigotes. […] After treatment, the fluorescence of intracellular amastigotes of L. amaz/tc3 was measured in a plate reader (Tecan, Männedorf, Switzerland). The viability was determined as was described for MI (fluorescent assay). The selectivity index (SI) (CC50 for macrophages/IC50 for Leishmania) was calculated.

O=c1c(O)c(-c2ccc(O)c(O)c2)oc2cc(O)ccc12 [FI, fisetin]
Concentration at which background fluorescence increased (interference with tdTomato readout): ≥ 30 µM

O=c1c(O)c(-c2ccccc2)oc2cc(O)cc(O)c12 [GAL, Galangin]
Concentration at which background fluorescence increased (interference with tdTomato readout): ≥ 30 µM

O=c1c(O)c(-c2ccc(O)cc2O)oc2cc(O)cc(O)c12 [MO, morin]
Concentration at which background fluorescence increased (interference with tdTomato readout): ≥ 75 µM
